In PubChem BioAssay AID662 (National Center for Advancing Translational Sciences (NCATS), 2007):
The other results are listed elsewhere or left out. Further columns of the screen follow, without active or inactive calls. The list favours compounds with an active or inconclusive main result. The note in brackets gives the kind of curve behind each potency; many fits are weak.

assay: Cell signaling CRE-BLA (Fsk stim); details: CHO CRE-bla reporter (cAMP response element driving beta-lactamase), forskolin EC10, beta-lactamase ratio; measured here: 460 nm blue channel
Method in brief: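 Forskolin analogue NKH 477 at EC10 stimulated CRE-driven beta-lactamase in CHO cells alongside compound dilution series. Beta-lactamase was measured with CCF4, excitation 405 nm, emission ratio 460/530 nm.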

Compound	AC50
COCCn1c(=S)[nH]c2cc(C(=O)N3CCN(Cc4ccc5c(c4)OCO5)CC3)ccc2c1=O	7.94 µM [rising, partial curve, poor fit]
CCOC(=O)C1=C(O)CSC1=Nc1cccc(Cl)c1	10 µM [rising, partial curve]
CCOC(=O)c1sc(NS(=O)(=O)c2ccc(NC(C)=O)cc2)nc1C	25.1 µM [falling, single point]
CCOC(=O)C1CCCN(C(=O)c2sc3nc(-c4ccccc4)cn3c2C)C1 (configuration not stated)	15.8 µM [rising, single point]
CCOC(=O)CSC(C)C(=O)Nc1nnc(C(C)C)s1 (configuration not stated)	7.94 µM [rising, partial curve]
CCc1ccc2[nH]c(=O)c(C(c3nnnn3CCOC)N3CCN(c4ccccc4)CC3)cc2c1 (configuration not stated)	0.0126 µM [falling, full curve]
CCc1c(C)nc(N)n2c(SCC(=O)N3CCN(c4ccccc4)CC3)nnc12	0.00398 µM [falling, full curve, poor fit]
COc1ccc(-c2noc(CSc3nc(N)c(-c4ccccc4)c(=O)[nH]3)n2)cc1	10 µM [rising, partial curve]
Nc1nc(-c2ccccc2)cc(N2CCCCC2)n1	0.631 µM [falling, full curve]
C(=C\c1ccccc1)/CSc1nnc(-c2ccccn2)n1Cc1ccco1	0.00398 µM [falling, full curve, poor fit]
CCOC(=O)c1cccc(NC(=O)C(C)N2C(=O)c3ccccc3C2=O)c1 (configuration not stated)	15.8 µM [falling, single point]
CC(C)=CCC1=C(OCC(=O)O)C(=O)c2ccccc2C1=O	5.01 µM [rising, single point]
COc1cccc(-c2cc(C(=O)N3C(C)CCCC3C)no2)c1 (configuration not stated)	0.1 µM [falling, full curve, poor fit]
CC12CC(c3ccccc3O1)N(C(=O)c1ccco1)C(=O)N2c1ccccc1 (configuration not stated)	0.00316 µM [falling, full curve, poor fit]
COc1ccccc1Nc1nc(N)nc(CSc2nccc(C)n2)n1	10 µM [rising, partial curve]
Cc1ccc(OCc2nnc(SCC(=O)Nc3ccc4c(c3)OCCO4)n2Cc2ccco2)cc1	25.1 µM [falling, single point]
Cc1cc(=O)[nH]c(N2CCN(C(c3ccccc3)c3ccccc3)CC2)n1	3.16 µM [falling, partial curve]
COc1ccc(/C(O)=C(\C#N)c2nc3ccccc3n2C)cc1OC	0.251 µM [rising, full curve]
CCn1c(SCC(=O)Nc2cc(C)c(Cl)cc2OC)nnc1-c1ccco1	12.6 µM [rising, partial curve]
COC(=O)c1[nH]c2c(c1C)C(=O)CC(c1cccs1)C2 (configuration not stated)	3.16 µM [rising, full curve]
O=C(O)c1cc(NCc2c(F)cccc2Cl)ccc1N1CCOCC1	3.16 µM [rising, single point]
Cc1nn(Cc2ccc(Cl)c(Cl)c2)c(C)c1NC(=O)c1cc(CC(C)C)on1	7.94 µM [falling, partial curve]
CNc1ncnc2ccc(-c3cccc(NS(C)(=O)=O)c3)cc12	7.94 µM [rising, partial curve]

Rewritten in markdown: four of the compounds above.

| Compound | AC50 |
| --- | --- |
| COCCn1c(=S)[nH]c2cc(C(=O)N3CCN(Cc4ccc5c(c4)OCO5)CC3)ccc2c1=O | 7.94 µM [rising, partial curve, poor fit] |
| CCOC(=O)C1=C(O)CSC1=Nc1cccc(Cl)c1 | 10 µM [rising, partial curve] |
| CC(C)=CCC1=C(OCC(=O)O)C(=O)c2ccccc2C1=O | 5.01 µM [rising, single point] |
| COC(=O)c1[nH]c2c(c1C)C(=O)CC(c1cccs1)C2 (configuration not stated) | 3.16 µM [rising, full curve] |

Later entries:

Compound	AC50
COc1cc(-c2nc(N)n[nH]2)cc(OC)c1OC	25.1 µM [rising, single point]
COc1ccc(-c2nc3cnc(N4CCN(C)CC4)nc3n(CCC#N)c2=O)cc1	10 µM [rising, partial curve]
O=c1ccc(S(=O)(=O)N2CCC(Cc3ccccc3)CC2)c[nH]1	0.02 µM [falling, full curve, poor fit]
Cc1ccccc1NC(=O)c1nc[nH]c1C(=O)NCc1ccccc1	10 µM [rising, partial curve]
Cc1ccccc1N1C(=O)CC(N(O)c2ccccc2)C1=O (configuration not stated)	15.8 µM [falling, partial curve]
COc1ccc(-n2c(CNC(=O)c3cc(OC)c(OC)c(OC)c3)n[nH]c2=S)cc1	31.6 µM [falling, single point]
COc1ccc(OC)c(C(=O)CSc2nnc(Cc3cccs3)n2C)c1	25.1 µM [rising, partial curve]
CC1C(=O)C(C)C(c2ccc3c(c2)OCO3)NC1c1ccc2c(c1)OCO2 (configuration not stated)	6.31 µM [falling, partial curve]
O=C(C1COc2ccccc2O1)N1CCN(c2ccccc2F)CC1 (configuration not stated)	0.00398 µM [falling, full curve, poor fit]
COCCOC(=O)c1[nH]c2c(c1C)C(=O)CC(c1ccco1)C2 (configuration not stated)	10 µM [rising, partial curve]
CCOC(=O)N1CCC(NC(=O)c2cc(-c3ccc(F)cc3)[nH]c2C)CC1	0.0501 µM [rising, partial curve, poor fit]
COc1cccc(Nc2ncc3nc(-c4ccccc4)c(=O)n(C[C@H]4CCCO4)c3n2)c1	12.6 µM [rising, partial curve]
Nc1c2ccccc2nc2ccccc12	12.6 µM [rising, partial curve]
c1ccc(C2=Nn3c(nnc3-c3ccncc3)SC2)cc1	3.16 µM [falling, partial curve]
O=C(Nc1ccc2c(c1)OCO2)N1CCN(C/C=C/c2ccccc2)CC1	3.98 µM [falling, partial curve]
Cc1c(C(=O)OCC(=O)c2c(N)n(CC(C)C)c(=O)n(C)c2=O)oc2ccccc12	1.58 µM [rising, full curve, poor fit]
O/N=C1\CCCc2nnc3c(c21)CCCC3	0.794 µM [rising, full curve, poor fit]
Cc1ccc(CN2C3=NCCCN3c3ccccc32)cc1	10 µM [falling, partial curve, poor fit]
N#Cc1c(N)sc2c1CCCCCC2	5.01 µM [rising, full curve, poor fit]
COc1ccc(C2=NOC(C(=O)Nc3cc(Br)ccc3O)C2)cc1OC (configuration not stated)	10 µM [rising, partial curve, poor fit]
CN1CCC(=C2c3ccccc3Sc3ccccc32)CC1	5.01 µM [rising, single point]
CCNc1ncc2nc(-c3ccc(Cl)cc3)c(=O)n(Cc3cccs3)c2n1	12.6 µM [rising, partial curve]
COc1ccccc1CNc1ncncc1-c1cccnc1	5.01 µM [rising, full curve, poor fit]

Compound	AC50
Cc1ccc2[nH]c3c(c2c1)CCc1cn[nH]c1-3	1 µM [falling, partial curve]
Nc1nnc(-c2cc3ccccc3oc2=O)s1	12.6 µM [rising, single point]
O=C(COc1ncnc2ccccc12)NCCC1=CCCCC1	3.98 µM [falling, single point]
COc1ccc(NC(=O)CN(c2ccccc2)S(=O)(=O)N(C)C)cc1OC	6.31 µM [rising, partial curve]
COC(=O)c1c(NC(=O)c2ccco2)sc2c1C(C(=O)OC)CC2 (configuration not stated)	10 µM [rising, partial curve]
CCOC(=O)N1CCC(NC(=O)CNS(=O)(=O)c2ccc(Br)s2)CC1	0.0631 µM [falling, full curve]
COc1ccc(CNc2ncnc3ccc(-c4cccnc4)cc23)c(OC)c1	0.631 µM [rising, full curve]
CN(C)C(=O)c1ccc(-c2nc(NCc3ccccc3)c3ccccc3n2)cc1	2.51 µM [rising, full curve]
CCOC(=O)C1CCCN(c2ncnc3c2cnn3-c2ccc(Cl)cc2)C1 (configuration not stated)	3.98 µM [rising, partial curve]
CCOc1ccc(C(=O)CN2CCN(S(=O)(=O)c3ccc(F)cc3)CC2)cc1	25.1 µM [falling, partial curve, poor fit]
CNc1nc(-c2ccccc2OC)nc2ccccc12	10 µM [rising, partial curve]
O=C(O)COc1c(F)c(F)c(C(F)(F)F)c(F)c1F	0.316 µM [rising, partial curve]
O=C(Nc1ccc(-c2cn3ccsc3n2)cc1)C1COc2ccccc2O1 (configuration not stated)	2.51 µM [rising, single point]
O=C(O)[C@@H]1CCCC[C@@H]1C(=O)N1CCc2ccccc2C1CN1C(=O)c2ccccc2C1=O (some centres not stated)	0.02 µM [falling, full curve, poor fit]
Cc1sc2c(=O)n3c(nc2c1C(=O)NCCCN1CCOCC1)CCCCC3	10 µM [rising, partial curve]
O=C(NCC1CCS(=O)(=O)C1)Oc1ccccc1 (configuration not stated)	1.26 µM [falling, partial curve, poor fit]
CCCCC(=O)N=c1sc2cc(S(C)(=O)=O)ccc2n1C	15.8 µM [rising, partial curve]
CCSc1nnc(Cc2cc(=O)[nH]c(=O)[nH]2)n1-c1cc(C)ccc1C	0.00631 µM [falling, full curve, poor fit]
c1ccc(-c2ccccn2)nc1	12.6 µM [falling, single point]
CSCCC(NC(=O)CCN1C(=O)c2ccccc2C1=O)C(=O)O (configuration not stated)	0.0631 µM [falling, full curve]
Cc1ccc(NC(=O)N2CCC(c3nc4c(nnn4Cc4cccc(Cl)c4)c(=O)[nH]3)CC2)cc1	12.6 µM [rising, partial curve]
